Experimental data: the supplement of paper PMC10849652
The other results are listed elsewhere or left out.

Sequences of proteins named here, by UniProt entry; tags and fusion partners are left off. A change or cut given only in a name is not applied to a line headed by its entry.
UniProt Q7Z2Z2: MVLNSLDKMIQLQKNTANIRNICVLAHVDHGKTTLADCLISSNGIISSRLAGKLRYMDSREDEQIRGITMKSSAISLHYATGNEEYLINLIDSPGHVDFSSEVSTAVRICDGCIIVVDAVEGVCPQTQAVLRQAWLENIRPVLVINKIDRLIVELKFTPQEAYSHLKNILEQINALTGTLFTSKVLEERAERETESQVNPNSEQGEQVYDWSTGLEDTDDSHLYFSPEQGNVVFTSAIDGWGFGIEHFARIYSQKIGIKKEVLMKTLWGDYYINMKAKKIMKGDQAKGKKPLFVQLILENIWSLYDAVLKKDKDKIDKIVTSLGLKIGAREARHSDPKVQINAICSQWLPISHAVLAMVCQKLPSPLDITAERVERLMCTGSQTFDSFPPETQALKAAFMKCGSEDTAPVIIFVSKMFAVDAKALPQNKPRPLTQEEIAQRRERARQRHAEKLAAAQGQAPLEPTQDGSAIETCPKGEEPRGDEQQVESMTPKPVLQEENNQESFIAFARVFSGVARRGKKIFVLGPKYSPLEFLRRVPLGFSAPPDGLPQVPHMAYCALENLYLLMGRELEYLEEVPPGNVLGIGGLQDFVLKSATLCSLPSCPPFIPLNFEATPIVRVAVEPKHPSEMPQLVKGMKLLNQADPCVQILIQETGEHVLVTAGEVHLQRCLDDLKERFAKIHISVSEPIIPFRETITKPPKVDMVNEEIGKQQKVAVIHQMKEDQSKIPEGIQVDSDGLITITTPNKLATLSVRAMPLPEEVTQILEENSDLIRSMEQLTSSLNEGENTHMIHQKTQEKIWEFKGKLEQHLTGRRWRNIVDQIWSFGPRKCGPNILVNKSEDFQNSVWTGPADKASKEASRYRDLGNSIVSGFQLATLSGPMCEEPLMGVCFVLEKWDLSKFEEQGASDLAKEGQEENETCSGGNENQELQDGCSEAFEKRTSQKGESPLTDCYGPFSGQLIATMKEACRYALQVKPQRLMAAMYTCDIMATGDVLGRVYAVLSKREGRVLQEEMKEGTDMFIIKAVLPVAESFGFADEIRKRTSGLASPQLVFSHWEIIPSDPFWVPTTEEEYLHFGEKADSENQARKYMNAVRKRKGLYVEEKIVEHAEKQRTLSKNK
UniProt Q8WWZ3: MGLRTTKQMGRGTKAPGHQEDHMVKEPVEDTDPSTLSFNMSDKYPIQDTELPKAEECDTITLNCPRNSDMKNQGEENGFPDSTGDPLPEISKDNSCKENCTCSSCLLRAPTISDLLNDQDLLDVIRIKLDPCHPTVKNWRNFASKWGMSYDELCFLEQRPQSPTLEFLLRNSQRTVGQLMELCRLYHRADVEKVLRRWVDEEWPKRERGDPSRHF
UniProt Q8TEA8: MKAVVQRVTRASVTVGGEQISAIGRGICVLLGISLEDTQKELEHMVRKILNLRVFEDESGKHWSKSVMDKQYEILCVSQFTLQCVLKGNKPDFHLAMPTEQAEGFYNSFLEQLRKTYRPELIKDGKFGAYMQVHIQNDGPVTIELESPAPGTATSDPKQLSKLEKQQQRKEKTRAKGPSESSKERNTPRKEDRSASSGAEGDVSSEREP
UniProt Q86TI2: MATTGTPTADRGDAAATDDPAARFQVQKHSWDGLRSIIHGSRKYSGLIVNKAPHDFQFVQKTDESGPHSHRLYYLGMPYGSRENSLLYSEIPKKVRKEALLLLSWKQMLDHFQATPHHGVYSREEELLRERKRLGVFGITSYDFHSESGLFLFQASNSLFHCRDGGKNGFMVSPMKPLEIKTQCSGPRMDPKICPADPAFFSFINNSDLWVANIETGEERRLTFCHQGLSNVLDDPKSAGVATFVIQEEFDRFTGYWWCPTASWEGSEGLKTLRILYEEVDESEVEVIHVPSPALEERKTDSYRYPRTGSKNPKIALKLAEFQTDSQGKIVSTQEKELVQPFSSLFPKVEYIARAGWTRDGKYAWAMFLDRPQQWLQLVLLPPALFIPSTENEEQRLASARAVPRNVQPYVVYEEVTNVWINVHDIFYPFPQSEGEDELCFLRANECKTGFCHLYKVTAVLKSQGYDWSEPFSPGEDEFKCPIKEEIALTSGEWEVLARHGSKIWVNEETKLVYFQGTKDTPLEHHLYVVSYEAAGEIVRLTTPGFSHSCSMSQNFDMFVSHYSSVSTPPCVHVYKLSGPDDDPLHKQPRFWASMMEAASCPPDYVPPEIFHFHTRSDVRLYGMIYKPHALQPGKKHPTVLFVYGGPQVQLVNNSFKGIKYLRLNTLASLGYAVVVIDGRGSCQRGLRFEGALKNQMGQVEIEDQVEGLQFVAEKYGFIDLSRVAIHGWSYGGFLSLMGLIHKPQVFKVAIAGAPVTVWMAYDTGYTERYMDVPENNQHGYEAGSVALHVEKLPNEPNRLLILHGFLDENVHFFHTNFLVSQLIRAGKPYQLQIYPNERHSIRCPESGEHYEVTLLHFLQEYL
UniProt Q96FN9: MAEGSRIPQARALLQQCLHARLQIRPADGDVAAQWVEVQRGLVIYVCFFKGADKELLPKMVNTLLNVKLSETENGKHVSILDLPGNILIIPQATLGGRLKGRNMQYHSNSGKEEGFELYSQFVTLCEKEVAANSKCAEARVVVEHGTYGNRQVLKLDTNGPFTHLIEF
UniProt Q92611: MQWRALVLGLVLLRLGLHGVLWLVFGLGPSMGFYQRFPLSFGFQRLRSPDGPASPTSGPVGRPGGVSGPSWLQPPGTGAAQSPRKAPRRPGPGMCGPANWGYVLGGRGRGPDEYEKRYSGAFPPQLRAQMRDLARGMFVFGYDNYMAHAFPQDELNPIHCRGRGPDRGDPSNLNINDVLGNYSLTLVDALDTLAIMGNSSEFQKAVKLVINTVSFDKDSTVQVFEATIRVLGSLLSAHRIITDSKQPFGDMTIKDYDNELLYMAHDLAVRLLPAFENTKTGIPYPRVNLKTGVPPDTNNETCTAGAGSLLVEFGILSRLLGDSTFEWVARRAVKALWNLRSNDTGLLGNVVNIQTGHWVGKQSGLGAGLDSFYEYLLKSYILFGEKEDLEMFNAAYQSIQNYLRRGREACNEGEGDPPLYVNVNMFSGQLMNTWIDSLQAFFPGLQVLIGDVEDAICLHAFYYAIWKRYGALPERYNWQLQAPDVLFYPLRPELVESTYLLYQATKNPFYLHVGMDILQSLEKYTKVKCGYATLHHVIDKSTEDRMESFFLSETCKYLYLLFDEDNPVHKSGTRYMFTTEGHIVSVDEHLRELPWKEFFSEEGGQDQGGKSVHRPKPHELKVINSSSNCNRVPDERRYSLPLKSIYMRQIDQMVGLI
UniProt P63167, whole entry, looked up: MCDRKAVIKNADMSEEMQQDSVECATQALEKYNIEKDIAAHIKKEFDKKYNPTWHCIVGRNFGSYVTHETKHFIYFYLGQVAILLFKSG
UniProt Q9Y6G9, whole entry, looked up: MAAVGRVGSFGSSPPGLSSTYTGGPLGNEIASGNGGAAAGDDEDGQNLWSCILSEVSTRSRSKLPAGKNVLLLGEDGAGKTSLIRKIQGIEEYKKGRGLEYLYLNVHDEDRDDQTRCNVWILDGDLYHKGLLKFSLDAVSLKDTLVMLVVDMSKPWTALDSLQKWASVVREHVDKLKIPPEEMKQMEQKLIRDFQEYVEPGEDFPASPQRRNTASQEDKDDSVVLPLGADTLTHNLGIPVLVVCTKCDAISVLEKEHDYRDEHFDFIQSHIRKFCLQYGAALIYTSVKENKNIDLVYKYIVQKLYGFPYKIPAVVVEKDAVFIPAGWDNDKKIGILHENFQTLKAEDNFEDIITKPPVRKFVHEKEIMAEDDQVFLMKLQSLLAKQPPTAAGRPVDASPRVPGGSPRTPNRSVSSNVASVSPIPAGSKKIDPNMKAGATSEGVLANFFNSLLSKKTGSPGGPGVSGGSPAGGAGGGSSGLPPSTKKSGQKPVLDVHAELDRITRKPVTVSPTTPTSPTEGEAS
EEF1AKMT2, A0A494BZY7, UniProt A0A494BZY7, whole entry, looked up: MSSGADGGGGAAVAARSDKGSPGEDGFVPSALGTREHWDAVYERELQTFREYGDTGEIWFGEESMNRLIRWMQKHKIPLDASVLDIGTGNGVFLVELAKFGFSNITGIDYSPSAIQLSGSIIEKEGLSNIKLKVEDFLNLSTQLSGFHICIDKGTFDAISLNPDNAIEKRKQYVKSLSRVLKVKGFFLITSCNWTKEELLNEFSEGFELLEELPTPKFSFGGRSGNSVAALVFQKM
UniProt Q92785, whole entry, looked up: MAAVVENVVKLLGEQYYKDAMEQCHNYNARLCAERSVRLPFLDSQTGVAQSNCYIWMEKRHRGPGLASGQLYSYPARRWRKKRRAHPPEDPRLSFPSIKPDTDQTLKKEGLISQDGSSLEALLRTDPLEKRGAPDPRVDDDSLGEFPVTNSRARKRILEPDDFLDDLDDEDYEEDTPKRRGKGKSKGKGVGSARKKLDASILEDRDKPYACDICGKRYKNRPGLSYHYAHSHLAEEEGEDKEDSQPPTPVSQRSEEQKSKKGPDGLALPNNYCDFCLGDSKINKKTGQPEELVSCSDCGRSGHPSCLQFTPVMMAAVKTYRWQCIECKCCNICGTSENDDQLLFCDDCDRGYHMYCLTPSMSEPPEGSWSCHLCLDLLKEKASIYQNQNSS
UniProt Q66K89: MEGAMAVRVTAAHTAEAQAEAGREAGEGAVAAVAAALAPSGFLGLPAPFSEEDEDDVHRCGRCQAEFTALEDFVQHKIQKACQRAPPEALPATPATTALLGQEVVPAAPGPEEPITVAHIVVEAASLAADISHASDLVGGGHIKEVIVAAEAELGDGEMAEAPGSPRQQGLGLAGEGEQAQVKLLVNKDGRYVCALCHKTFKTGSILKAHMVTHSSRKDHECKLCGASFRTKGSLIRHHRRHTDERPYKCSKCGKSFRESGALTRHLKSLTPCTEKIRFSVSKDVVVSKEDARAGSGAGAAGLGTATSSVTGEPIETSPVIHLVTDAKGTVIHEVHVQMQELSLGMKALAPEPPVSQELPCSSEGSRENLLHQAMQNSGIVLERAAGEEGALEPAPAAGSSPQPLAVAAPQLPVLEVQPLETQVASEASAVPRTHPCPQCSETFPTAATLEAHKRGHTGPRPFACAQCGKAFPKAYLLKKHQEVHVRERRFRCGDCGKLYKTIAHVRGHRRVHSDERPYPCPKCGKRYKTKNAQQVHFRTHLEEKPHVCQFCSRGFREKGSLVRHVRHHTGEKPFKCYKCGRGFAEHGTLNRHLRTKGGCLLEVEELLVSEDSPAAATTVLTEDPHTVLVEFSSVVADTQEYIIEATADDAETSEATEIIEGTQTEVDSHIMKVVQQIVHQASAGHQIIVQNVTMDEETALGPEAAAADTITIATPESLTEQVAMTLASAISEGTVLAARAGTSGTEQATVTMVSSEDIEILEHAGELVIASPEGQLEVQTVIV
UniProt Q9NTX5: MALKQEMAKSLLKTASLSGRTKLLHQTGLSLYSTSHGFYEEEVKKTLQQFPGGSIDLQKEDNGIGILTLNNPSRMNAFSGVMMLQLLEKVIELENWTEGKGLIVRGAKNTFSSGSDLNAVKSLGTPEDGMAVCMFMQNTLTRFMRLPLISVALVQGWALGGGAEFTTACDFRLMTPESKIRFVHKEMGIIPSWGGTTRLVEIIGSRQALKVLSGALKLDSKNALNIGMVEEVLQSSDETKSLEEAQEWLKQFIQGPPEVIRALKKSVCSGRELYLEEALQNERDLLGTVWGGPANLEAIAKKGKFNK
UniProt Q9UNI6, whole entry, looked up: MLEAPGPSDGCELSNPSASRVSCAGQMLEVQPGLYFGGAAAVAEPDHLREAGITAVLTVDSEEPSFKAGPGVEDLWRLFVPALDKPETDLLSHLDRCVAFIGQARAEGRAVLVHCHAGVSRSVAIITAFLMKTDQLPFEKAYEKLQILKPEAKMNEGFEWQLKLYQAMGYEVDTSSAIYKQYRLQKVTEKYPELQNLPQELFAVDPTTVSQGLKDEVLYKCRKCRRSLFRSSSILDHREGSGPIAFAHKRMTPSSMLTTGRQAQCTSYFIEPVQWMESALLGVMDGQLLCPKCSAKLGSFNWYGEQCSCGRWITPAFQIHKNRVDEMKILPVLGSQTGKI

What was measured:
Experiment in all cases: log2 fold change, soluble protein after heating vs DMSO (PISA); higher = thermal stabilisation; K562 lysate, 10 uM; active = over 0.2 and 3.5 SD of the protein, either way, in both replicates (recomputed)
lapatinib = compound: CS(=O)(=O)CCNCc1ccc(-c2ccc3ncnc(Nc4ccc(OCc5cccc(F)c5)c(Cl)c4)c3c2)o1 [lapatinib]
In short: (§1)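 Log-two fold change in thermal stability relative to solvent controls is reported from duplicates. For each sample, crude K562 extract from dounce-homogenised pellets in PBS pH 7.4 with 1 mM MgCl2, at 1 mg/mL protein, was treated with 10 μM compound for 30 min. Aliquots heated for 3 min across 48°C-58°C were pooled, brought to 0.5% NP-40 at 4°C and cleared at 21,000xg for 90 min. The supernatant was quantified by TMTpro 16plex LC-MS/MS with channel sums equalised.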

pictilisib = compound: CS(=O)(=O)N1CCN(Cc2cc3nc(-c4cccc5[nH]ncc45)nc(N4CCOCC4)c3s2)CC1 [pictilisib]
In short: as §1

crizotinib = compound: C[C@@H](Oc1cc(-c2cnn(C3CCNCC3)c2)cnc1N)c1c(Cl)ccc(F)c1Cl [crizotinib]
In short: as §1

[1] = compound: C[C@H](C1=CC=C(C=C1)C(=O)NC2=C3C=CNC3=NC=C2)N
In short: as §1

duvelisib = compound: C[C@H](Nc1ncnc2nc[nH]c12)c1cc2cccc(Cl)c2c(=O)n1-c1ccccc1 [duvelisib]
In short: as §1

gandotinib = compound: Cc1cc(Nc2cc(CN3CCOCC3)c3nc(C)c(Cc4ccc(Cl)cc4F)n3n2)n[nH]1 [gandotinib]
In short: as §1

tozasertib = compound: Cc1cc(Nc2cc(N3CCN(C)CC3)nc(Sc3ccc(NC(=O)C4CC4)cc3)n2)n[nH]1 [tozasertib]
In short: as §1

doramapimod = compound: Cc1ccc(-n2nc(C(C)(C)C)cc2NC(=O)Nc2ccc(OCCN3CCOCC3)c3ccccc23)cc1 [doramapimod]
In short: as §1

bafetinib = compound: Cc1ccc(NC(=O)c2ccc(CN3CC[C@H](N(C)C)C3)c(C(F)(F)F)c2)cc1Nc1nccc(-c2cncnc2)n1 [bafetinib]
In short: as §1

[2] = compound: Cc1cccc(CC(=O)N2CCc3c2ccc(-c2cn(C)c4ncnc(N)c24)c3F)n1
In short: as §1

nilotinib = compound: Cc1cn(-c2cc(NC(=O)c3ccc(C)c(Nc4nccc(-c5cccnc5)n4)c3)cc(C(F)(F)F)c2)cn1 [nilotinib]
In short: as §1

[3] = compound: Cc1nc(Nc2n[nH]c3c2CN(C(=O)N[C@H](CN(C)C)c2ccccc2)C3(C)C)c2sccc2n1
In short: as §1

dasatinib = compound: Cc1nc(Nc2ncc(C(=O)Nc3c(C)cccc3Cl)s2)cc(N2CCN(CCO)CC2)n1 [dasatinib]
In short: as §1

[4] = compound: Cc1ncc(-c2ccnc(Nc3ccc(S(C)(=O)=O)cc3)n2)n1C(C)C
In short: as §1

[5] = compound: Cn1cc(-c2ccc3c(c2)CCN3C(=O)Cc2cccc(C(F)(F)F)c2)c2c(N)ncnc21
In short: as §1

quisinostat = compound: Cn1cc(CNCC2CCN(c3ncc(C(=O)NO)cn3)CC2)c2ccccc21 [quisinostat]
In short: as §1

tipifarnib = compound: Cn1cncc1[C@@](N)(c1ccc(Cl)cc1)c1ccc2c(c1)c(-c1cccc(Cl)c1)cc(=O)n2C [tipifarnib]
In short: as §1

[6] = compound: NC(=O)Nc1cc(-c2cccc(F)c2)sc1C(=O)N[C@H]1CCCNC1
In short: as §1

[7] = compound: NC(=O)c1cnc(N[C@@H]2CCCC[C@@H]2N)nc1Nc1cccc(-n2nccn2)c1
In short: as §1

[8] = compound: NC1(c2ccc(-c3nc4ccn5c(=O)[nH]nc5c4cc3-c3ccccc3)cc2)CCC1
In short: as §1

Measured: log2 fold change

EFL1 (UniProt Q7Z2Z2)
inactive: lapatinib 0.013 | pictilisib -0.023 | crizotinib -0.024 | [1] 0.035 | duvelisib 0.026 | gandotinib -0.073 | tozasertib 0.005 | doramapimod 0.024 | bafetinib 0.012 | [2] -0.019 | nilotinib -0.01 | [3] 0.015 | dasatinib -0.013 | [4] 0.001 | [5] 0.007 | quisinostat -0.022 | tipifarnib -0.013 | [6] 0.002 | [7] 0.017 | [8] 0.02

DYRK1A (UniProt Q13627)
inactive: lapatinib -0.024 | pictilisib -0.003 | crizotinib 0.018 | [1] 0.055 | duvelisib -0.021 | gandotinib -0.012 | tozasertib 0.03 | doramapimod -0.06 | bafetinib -0.028 | [2] -0.021 | nilotinib -0.018 | [3] 0.062 | dasatinib -0.021 | [4] 0.031 | [5] 0.033 | quisinostat -0.026 | tipifarnib -0.06 | [6] 0.072 | [7] -0.01 | [8] -0.013

EDARADD (UniProt Q8WWZ3)
inactive: lapatinib -0.037 | pictilisib -0.122 | crizotinib 0.027 | [1] -0.049 | duvelisib 0.015 | gandotinib 0.074 | tozasertib 0.082 | doramapimod 0.086 | bafetinib 0 | [2] -0.027 | nilotinib 0.076 | [3] -0.036 | dasatinib -0.004 | [4] 0.008 | [5] 0.023 | quisinostat 0.07 | tipifarnib 0.065 | [6] -0.05 | [7] -0.032 | [8] 0.019

DTD1 (UniProt Q8TEA8)
inactive: lapatinib 0.035 | pictilisib -0.008 | crizotinib 0.05 | [1] -0.055 | duvelisib 0.047 | gandotinib 0.054 | tozasertib 0.017 | doramapimod 0.039 | bafetinib 0.034 | [2] 0.025 | nilotinib -0.037 | [3] -0.028 | dasatinib 0.018 | [4] 0.015 | [5] -0.009 | quisinostat 0.016 | tipifarnib -0.009 | [6] 0.006 | [7] 0.015 | [8] 0.048

DPP9 isoform 2 (UniProt Q86TI2)
inactive: lapatinib -0.009 | pictilisib -0.029 | crizotinib 0.002 | [1] -0.006 | duvelisib -0.033 | gandotinib 0.003 | tozasertib 0.006 | doramapimod -0.013 | bafetinib -0.03 | [2] -0.007 | nilotinib 0.011 | [3] -0.006 | dasatinib 0.01 | [4] 0.02 | [5] -0.006 | quisinostat -0.008 | tipifarnib 0.004 | [6] 0.022 | [7] 0.003 | [8] -0.003

DTD2 (UniProt Q96FN9)
inactive: lapatinib -0.049 | pictilisib 0.081 | crizotinib 0.122 | [1] -0.094 | duvelisib -0.005 | gandotinib 0.184 | tozasertib 0.157 | doramapimod -0.022 | bafetinib -0.413 | [2] 0.17 | dasatinib 0.097 | [5] -0.023 | quisinostat 0.054 | [6] 0.047 | [7] -0.047 | [8] 0.084

EDEM1 (UniProt Q92611)
inactive: lapatinib 0.058 | pictilisib -0.072 | crizotinib -0.098 | [1] -0.023 | duvelisib 0.016 | gandotinib -0.042 | tozasertib -0.008 | doramapimod 0.013 | bafetinib 0.069 | [2] -0.026 | nilotinib 0.138 | [3] -0.177 | dasatinib -0.034 | [4] 0.183 | [5] 0.079 | quisinostat 0.104 | tipifarnib -0.064 | [6] -0.021 | [7] 0.047 | [8] -0.031

DYNLL1 (UniProt P63167)
inactive: lapatinib 0.028 | pictilisib 0.001 | crizotinib -0.008 | [1] -0.059 | duvelisib 0.021 | gandotinib 0.021 | tozasertib 0.017 | doramapimod 0.02 | bafetinib 0.03 | [2] 0.053 | nilotinib 0.016 | [3] 0.067 | dasatinib -0.011 | [4] 0.06 | [5] -0.032 | quisinostat -0.066 | tipifarnib -0.013 | [6] -0.001 | [7] -0.018 | [8] -0.032

DYNC1LI1 (UniProt Q9Y6G9)
inactive: lapatinib 0.001 | pictilisib 0.025 | crizotinib -0.004 | [1] -0.014 | duvelisib 0.019 | gandotinib -0.052 | tozasertib 0.006 | doramapimod -0.016 | bafetinib 0.01 | [2] 0.007 | nilotinib 0.014 | [3] 0.022 | dasatinib -0.011 | [4] 0.025 | [5] 0.014 | quisinostat 0.009 | tipifarnib -0.019 | [6] 0.005 | [7] 0.001 | [8] -0.013

EEF1AKMT2, A0A494BZY7
inactive: lapatinib -0.001 | pictilisib -0.028 | crizotinib -0.061 | [1] -0.044 | duvelisib 0.006 | gandotinib -0.095 | tozasertib 0 | doramapimod -0.023 | bafetinib 0 | [2] 0.007 | nilotinib 0.011 | [3] -0.012 | dasatinib -0.008 | [4] 0.016 | [5] 0.002 | quisinostat 0.007 | tipifarnib -0.025 | [6] 0.042 | [7] -0.021 | [8] -0.033

DPF2 (UniProt Q92785)
inactive: lapatinib -0.016 | pictilisib -0.017 | crizotinib 0.013 | [1] 0.065 | duvelisib -0.008 | gandotinib -0.035 | tozasertib 0.004 | doramapimod 0.071 | bafetinib -0.069 | [2] -0.024 | nilotinib -0.011 | [3] 0.014 | dasatinib 0.03 | [4] 0.019 | [5] 0.026 | quisinostat -0.01 | tipifarnib -0.034 | [6] 0.002 | [7] 0.014 | [8] 0.015

DYNC1H1 (UniProt Q14204)
inactive: lapatinib -0.012 | pictilisib -0.013 | crizotinib -0.021 | [1] 0.007 | duvelisib -0.017 | gandotinib -0.088 | tozasertib 0.006 | doramapimod 0.012 | bafetinib -0.024 | [2] -0.001 | nilotinib -0.002 | [3] 0.005 | dasatinib -0.012 | [4] -0.005 | [5] 0.028 | quisinostat 0.008 | tipifarnib -0.002 | [6] 0.022 | [7] 0.008 | [8] -0.002

E4F1 (UniProt Q66K89)
inactive: lapatinib 0.08 | pictilisib -0.269 | crizotinib -0.092 | [1] 0.059 | duvelisib 0.049 | gandotinib 0.015 | doramapimod -0.094 | bafetinib 0.012 | [2] 0.058 | nilotinib -0.375 | [3] -0.063 | dasatinib -0.024 | [4] 0.235 | [5] -0.073 | quisinostat 0.01 | tipifarnib 0.027 | [6] 0.008 | [7] 0.019 | [8] -0.078

EAF1 (UniProt Q96JC9)
inactive: lapatinib -0.045 | pictilisib 0.025 | crizotinib -0.001 | [1] -0.057 | duvelisib -0.026 | gandotinib 0.1 | tozasertib 0.056 | doramapimod 0.052 | bafetinib 0.034 | [2] 0.023 | nilotinib -0.05 | [3] 0.051 | dasatinib 0.037 | [4] -0.048 | [5] -0.01 | quisinostat -0.064 | tipifarnib 0.039 | [6] 0.049 | [7] 0.063 | [8] 0.027

ECHDC1 (UniProt Q9NTX5)
inactive: lapatinib 0.025 | pictilisib -0.01 | crizotinib 0.046 | [1] -0.045 | duvelisib -0.01 | gandotinib 0.021 | tozasertib -0.006 | doramapimod -0.035 | bafetinib 0 | [2] 0.037 | nilotinib -0.061 | [3] -0.01 | dasatinib -0.033 | [4] -0.01 | [5] -0.004 | quisinostat 0 | tipifarnib 0.04 | [6] 0.006 | [7] -0.013 | [8] 0.011

DUSP12 (UniProt Q9UNI6)
inactive: lapatinib -0.012 | pictilisib -0.026 | crizotinib -0.018 | [1] -0.041 | duvelisib -0.018 | gandotinib 0.013 | tozasertib -0.011 | doramapimod -0.008 | bafetinib 0.028 | [2] 0.013 | nilotinib -0.026 | [3] 0.011 | dasatinib -0.009 | [4] -0.025 | [5] 0.008 | quisinostat 0.001 | tipifarnib -0.014 | [6] 0.003 | [7] -0.02 | [8] 0.02

Quoted at random: 2 entries already listed, in no set order.
DPF2 (UniProt Q92785)
inactive: lapatinib -0.016 | pictilisib -0.017 | crizotinib 0.013 | [1] 0.065 | duvelisib -0.008 | gandotinib -0.035 | tozasertib 0.004 | doramapimod 0.071 | bafetinib -0.069 | [2] -0.024 | nilotinib -0.011 | [3] 0.014 | dasatinib 0.03 | [4] 0.019 | [5] 0.026 | quisinostat -0.01 | tipifarnib -0.034 | [6] 0.002 | [7] 0.014 | [8] 0.015

DYNC1H1 (UniProt Q14204)
inactive: lapatinib -0.012 | pictilisib -0.013 | crizotinib -0.021 | [1] 0.007 | duvelisib -0.017 | gandotinib -0.088 | tozasertib 0.006 | doramapimod 0.012 | bafetinib -0.024 | [2] -0.001 | nilotinib -0.002 | [3] 0.005 | dasatinib -0.012 | [4] -0.005 | [5] 0.028 | quisinostat 0.008 | tipifarnib -0.002 | [6] 0.022 | [7] 0.008 | [8] -0.002
